No constants are given. Whether binding was seen depends on the method and setting. Some entries that bind do so weakly or less than the wild type.
What was measured:
equine NGF (equine) [1] = target: equine NGF (equine) (UniProt F6SVV7); test: ELISA (FIG. 1)
Protein A [2] = target: Protein A (UniProt P38507); test: Protein A affinity chromatography; eluted fractions quantitated by NGF ELISA
equine NGF (equine) [3] = target: equine NGF (equine) (UniProt F6SVV7); test: ELISA: CHO supernatant on NGF, goat anti-equine IgG-HRP, OD450, against mock supernatant
Protein A [4] = target: Protein A (UniProt P38507); test: Protein A affinity chromatography of CHO supernatant; antibody in fractions measured by quantitative ELISA
Protein A [5] = target: Protein A (UniProt P38507); test: Protein A column, fractions shown by Western blot with anti-equine polyclonal antibody-HRP and Coomassie SDS-PAGE

Measured: binding

B1: eqN-HC2+eqN-kLC-1 (equinised αD11 anti-NGF antibody comprising the eqN-kLC-1 light chain and the eqN-HC2 (IgG2) heavy chain) (antibody)
heavy: QVQLKESGPGLVNPSQTLSLTCTVSGFSLTNNNVNWVRQAPGKGLEWVGGVWAGGATDYNSALKSRATITRDTSKSQVFLQMNSLTSEDTAVYYCARDGGYSSSTLYAMDAWGQGILVTVSSASTTAPKYFQLTPSCGITSDATVALGCLVSDYYPEPVTVSWNSGALTSGVHTFPSVLQSSGLYALSSMVTVPASTWTSETYICNVAHPASSTKVDKRIPPCVLSAEGVIPIPSVPKPQCPPYTHSKFLGGPSVFIFPPNPKDALMISRTPVVTCVVVNLSDQYPDVQFSWYVDNTEVHSAITKQREAQFNSTYRVVSVLPIQHQDWLSGKEFKCSVTNVGVPQPISRAISRGKGPSRVPQVYVLPPHPDELAKSKVSVTCLVKDFYPPDISVEWQSNRWPELEGKYSTTPAQLDGDGSYFLYSKLSLETSRWQQVESFTCAVMHEALHNHFTKTDISESLGK
light: DIVMTQSPASLSASLGETVTIECRASEDIYNALAWYQQKPGQSPKLLIYNTDTLHTGVPSRFSGSGSGTDYSLTINSLQSEDVASYFCQHYFHYPRTFGQGTKLELKRDDAKPSAFIFPPSSEELSSGSASVVCLVYGFYPSGATINWKVDGLAKTSSFHSSLTEQDSKDNTYSLSSTLTLPKADYEAHNVYACEVSHKTLSSPLVKSFKRQDC
binds: all assays above
